The values that follow come from US20260139007A1 (SANFORD BURNHAM PREBYS MEDICAL DISCOVERY INSTITUTE, priority 2023, published 2026).

For some of these results: Strings that start with PEPTIDE1 are HELM notation: dots part the residues, brackets hold end groups and non-standard residues.

Series [1] in a line: general procedure: Fmoc solid-phase peptide synthesis; Rink amide aminomethyl resin (0.69 mmol/g, Novabiochem) or Rink amide ChemMatrix resin (0.4 mmol/g, Biotage); Wang resin; HCTU/DIEA; DIC/Oxyma for SEQ ID NO: 39. Particulars: oxidative folding step, analytical reversed-phase HPLC, integration of the signal at 214 nm.
A short description of series [2]: general procedure: Fmoc solid-phase peptide synthesis; Wang resin; HCTU/DIEA; DIC/Oxyma for SEQ ID NO: 39. The note with it: whole synthesis, scale 0.5 mmol.
Series [3] can be described thus: general procedure: Fmoc solid-phase peptide synthesis; Gyros Rink amide resin; HCTU/DIEA; DIC/Oxyma for SEQ ID NO: 39. The note with it: whole synthesis, analytical reversed-phase HPLC, integration of the signal at 214 nm, scale 0.25 mmole.

Consider “H-βA1a-Pro-Tyr(tBu)-Cys(Trt)-Val-Tyr(tBu)-Arg (Pbf)-βA1a-Ser(tBu)-Trp(Boc)-Ser(tBu)-Cys(Trt)-Ahx-Ahx-Ahx-Pra-OH”, for which the “final HPLC purity” value in series [1] was more than 95%. In series [2], the crude mass was determined as 0.55 g. This substance displayed a crude yield in series [2] (theoretical crude 0.92 g) of 59.78%.
With “PEPTIDE1{[XbA].P.Y.C.V.Y.R.[XbA].S.W.S.C.G.G.[XK_lauroylgEgE].G.[am]}$PEPTIDE1,PEPTIDE1,4:R3-12:R3$$$V2.0”, the “final LC-MS purity” value in series [3] is recorded as more than 95%.
